Measurements from the supplement of paper PMC11006884.
The targets with a hit were mostly taken out for another list; the other results follow. The data scatter; read single values as rough. The entries are a selection whose mix differs from that of the whole data set.

Chains of the proteins cited; added tags and fusions are not shown. Lines headed by an entry give the natural chain unless they say otherwise; changes in a name come on top.
UniProt Q6P4I2: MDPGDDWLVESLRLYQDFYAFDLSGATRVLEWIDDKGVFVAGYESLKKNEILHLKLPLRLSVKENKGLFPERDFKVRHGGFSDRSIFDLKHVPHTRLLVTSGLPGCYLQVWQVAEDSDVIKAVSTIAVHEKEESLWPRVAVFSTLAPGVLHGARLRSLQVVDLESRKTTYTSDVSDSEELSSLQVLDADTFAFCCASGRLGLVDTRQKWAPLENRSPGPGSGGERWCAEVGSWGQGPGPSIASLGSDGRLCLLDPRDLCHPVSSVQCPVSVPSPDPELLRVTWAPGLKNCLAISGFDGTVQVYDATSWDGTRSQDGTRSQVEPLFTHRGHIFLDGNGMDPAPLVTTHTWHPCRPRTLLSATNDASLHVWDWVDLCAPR
UniProt Q5TC12: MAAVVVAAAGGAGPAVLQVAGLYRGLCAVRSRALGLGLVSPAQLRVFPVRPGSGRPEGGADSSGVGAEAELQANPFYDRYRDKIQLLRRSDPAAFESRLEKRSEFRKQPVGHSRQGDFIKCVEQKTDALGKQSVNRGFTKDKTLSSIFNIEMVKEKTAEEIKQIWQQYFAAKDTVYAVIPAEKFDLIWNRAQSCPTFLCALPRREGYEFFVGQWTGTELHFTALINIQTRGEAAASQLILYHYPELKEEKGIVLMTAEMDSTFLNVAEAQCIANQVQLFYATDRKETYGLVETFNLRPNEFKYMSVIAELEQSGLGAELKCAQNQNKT
UniProt Q6IBS0: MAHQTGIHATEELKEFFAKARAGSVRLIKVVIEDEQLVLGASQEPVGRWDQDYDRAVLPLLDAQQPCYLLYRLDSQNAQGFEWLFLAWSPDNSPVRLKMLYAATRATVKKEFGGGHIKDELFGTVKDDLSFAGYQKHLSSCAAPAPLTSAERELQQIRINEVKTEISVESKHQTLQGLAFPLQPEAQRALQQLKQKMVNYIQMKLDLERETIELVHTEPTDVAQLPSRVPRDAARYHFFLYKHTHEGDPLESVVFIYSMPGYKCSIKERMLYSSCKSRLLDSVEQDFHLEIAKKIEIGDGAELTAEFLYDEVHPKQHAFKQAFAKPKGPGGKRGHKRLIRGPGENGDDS
UniProt Q6PI48: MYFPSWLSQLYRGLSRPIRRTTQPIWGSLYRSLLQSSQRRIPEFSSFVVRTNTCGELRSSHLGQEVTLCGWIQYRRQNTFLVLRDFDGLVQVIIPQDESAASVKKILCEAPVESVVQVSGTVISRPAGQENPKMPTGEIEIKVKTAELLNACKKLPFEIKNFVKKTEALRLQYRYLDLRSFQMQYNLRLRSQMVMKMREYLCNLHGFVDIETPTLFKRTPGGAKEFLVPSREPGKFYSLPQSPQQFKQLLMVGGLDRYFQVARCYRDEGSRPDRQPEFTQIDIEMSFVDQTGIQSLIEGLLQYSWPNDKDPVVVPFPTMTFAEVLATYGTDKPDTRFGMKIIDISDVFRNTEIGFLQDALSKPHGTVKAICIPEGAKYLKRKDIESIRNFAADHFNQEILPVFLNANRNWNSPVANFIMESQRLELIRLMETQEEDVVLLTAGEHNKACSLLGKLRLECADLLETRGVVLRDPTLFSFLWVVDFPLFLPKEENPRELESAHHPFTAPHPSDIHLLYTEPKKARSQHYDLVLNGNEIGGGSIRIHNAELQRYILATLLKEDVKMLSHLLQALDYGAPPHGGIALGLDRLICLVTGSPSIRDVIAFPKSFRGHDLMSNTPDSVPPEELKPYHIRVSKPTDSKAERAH
UniProt Q6IQ49: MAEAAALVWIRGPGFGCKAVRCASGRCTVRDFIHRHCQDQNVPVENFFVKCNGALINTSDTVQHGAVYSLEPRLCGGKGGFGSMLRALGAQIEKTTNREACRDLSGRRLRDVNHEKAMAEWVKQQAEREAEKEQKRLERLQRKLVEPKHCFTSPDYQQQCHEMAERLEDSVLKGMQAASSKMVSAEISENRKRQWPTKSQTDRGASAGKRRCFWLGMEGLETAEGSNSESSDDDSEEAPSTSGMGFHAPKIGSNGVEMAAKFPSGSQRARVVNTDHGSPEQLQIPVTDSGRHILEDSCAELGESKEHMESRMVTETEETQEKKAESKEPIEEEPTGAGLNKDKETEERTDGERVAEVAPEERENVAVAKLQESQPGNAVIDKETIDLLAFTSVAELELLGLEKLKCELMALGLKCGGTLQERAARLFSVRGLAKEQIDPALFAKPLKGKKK
UniProt Q658Y4: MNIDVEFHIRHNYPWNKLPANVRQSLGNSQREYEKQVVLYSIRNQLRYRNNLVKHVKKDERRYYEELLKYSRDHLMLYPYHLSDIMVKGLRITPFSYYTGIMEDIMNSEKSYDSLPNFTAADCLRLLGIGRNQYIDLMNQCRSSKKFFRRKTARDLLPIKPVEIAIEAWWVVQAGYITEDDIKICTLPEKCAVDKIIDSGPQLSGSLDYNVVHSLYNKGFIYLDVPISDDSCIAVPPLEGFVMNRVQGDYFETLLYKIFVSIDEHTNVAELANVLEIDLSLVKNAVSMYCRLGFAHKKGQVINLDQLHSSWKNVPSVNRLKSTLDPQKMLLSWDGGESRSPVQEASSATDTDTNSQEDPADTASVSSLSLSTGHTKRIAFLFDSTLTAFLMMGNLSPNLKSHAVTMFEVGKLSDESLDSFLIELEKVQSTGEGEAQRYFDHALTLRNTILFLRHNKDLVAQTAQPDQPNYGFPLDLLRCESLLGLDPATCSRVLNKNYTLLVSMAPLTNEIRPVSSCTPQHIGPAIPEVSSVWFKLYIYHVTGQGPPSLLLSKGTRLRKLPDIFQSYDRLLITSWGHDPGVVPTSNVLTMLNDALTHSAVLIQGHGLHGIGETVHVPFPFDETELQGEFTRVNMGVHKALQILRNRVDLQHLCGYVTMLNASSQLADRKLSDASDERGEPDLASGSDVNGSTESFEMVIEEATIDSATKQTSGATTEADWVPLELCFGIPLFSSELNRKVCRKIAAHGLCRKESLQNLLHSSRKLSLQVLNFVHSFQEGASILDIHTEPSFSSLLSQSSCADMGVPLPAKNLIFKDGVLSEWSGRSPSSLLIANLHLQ
UniProt Q6YHU6: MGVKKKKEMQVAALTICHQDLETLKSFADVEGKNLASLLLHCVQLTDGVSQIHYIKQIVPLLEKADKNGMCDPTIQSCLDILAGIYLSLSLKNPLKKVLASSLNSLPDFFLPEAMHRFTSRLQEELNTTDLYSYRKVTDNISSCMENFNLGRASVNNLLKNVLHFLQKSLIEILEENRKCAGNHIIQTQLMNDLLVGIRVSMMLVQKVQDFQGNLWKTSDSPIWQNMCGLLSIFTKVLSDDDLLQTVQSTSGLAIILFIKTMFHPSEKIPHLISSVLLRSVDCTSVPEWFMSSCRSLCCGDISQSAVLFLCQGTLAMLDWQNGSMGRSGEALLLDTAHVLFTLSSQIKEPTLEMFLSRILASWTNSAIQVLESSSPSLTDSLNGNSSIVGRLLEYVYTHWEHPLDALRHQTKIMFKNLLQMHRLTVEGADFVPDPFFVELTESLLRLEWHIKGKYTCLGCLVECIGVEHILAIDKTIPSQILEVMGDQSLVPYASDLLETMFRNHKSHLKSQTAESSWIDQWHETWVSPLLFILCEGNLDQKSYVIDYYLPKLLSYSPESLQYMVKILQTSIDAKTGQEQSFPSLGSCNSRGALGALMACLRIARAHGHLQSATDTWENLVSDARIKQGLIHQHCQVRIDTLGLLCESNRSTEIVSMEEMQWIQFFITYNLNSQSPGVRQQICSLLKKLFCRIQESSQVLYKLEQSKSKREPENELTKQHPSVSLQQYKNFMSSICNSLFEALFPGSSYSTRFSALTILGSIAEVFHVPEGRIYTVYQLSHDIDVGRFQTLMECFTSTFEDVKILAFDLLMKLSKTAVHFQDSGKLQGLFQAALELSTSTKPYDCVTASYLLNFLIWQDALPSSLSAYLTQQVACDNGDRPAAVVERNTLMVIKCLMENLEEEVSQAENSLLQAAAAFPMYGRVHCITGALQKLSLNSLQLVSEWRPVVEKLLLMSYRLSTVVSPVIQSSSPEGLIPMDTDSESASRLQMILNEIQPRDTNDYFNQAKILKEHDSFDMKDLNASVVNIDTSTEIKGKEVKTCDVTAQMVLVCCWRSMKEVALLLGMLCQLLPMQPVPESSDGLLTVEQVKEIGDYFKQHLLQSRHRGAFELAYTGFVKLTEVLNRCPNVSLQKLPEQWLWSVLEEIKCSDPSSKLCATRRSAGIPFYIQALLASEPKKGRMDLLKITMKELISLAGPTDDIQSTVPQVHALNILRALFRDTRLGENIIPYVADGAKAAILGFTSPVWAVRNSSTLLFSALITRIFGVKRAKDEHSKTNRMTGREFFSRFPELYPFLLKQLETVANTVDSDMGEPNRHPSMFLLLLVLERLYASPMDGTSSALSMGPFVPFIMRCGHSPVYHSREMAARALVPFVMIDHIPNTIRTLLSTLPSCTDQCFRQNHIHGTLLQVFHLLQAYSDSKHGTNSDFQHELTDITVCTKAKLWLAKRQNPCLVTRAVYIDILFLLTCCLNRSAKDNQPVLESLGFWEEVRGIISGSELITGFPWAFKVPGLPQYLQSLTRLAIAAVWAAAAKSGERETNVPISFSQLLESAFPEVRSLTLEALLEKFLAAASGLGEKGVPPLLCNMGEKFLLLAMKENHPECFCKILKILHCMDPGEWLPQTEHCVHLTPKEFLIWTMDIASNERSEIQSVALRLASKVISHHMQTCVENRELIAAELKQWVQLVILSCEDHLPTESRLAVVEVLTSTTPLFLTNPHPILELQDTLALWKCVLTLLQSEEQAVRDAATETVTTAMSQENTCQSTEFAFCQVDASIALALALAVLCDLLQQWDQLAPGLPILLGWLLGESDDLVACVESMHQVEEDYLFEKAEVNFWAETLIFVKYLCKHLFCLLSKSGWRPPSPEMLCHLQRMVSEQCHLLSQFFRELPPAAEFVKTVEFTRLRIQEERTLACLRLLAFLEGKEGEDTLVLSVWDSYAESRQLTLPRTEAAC
UniProt Q6IA69: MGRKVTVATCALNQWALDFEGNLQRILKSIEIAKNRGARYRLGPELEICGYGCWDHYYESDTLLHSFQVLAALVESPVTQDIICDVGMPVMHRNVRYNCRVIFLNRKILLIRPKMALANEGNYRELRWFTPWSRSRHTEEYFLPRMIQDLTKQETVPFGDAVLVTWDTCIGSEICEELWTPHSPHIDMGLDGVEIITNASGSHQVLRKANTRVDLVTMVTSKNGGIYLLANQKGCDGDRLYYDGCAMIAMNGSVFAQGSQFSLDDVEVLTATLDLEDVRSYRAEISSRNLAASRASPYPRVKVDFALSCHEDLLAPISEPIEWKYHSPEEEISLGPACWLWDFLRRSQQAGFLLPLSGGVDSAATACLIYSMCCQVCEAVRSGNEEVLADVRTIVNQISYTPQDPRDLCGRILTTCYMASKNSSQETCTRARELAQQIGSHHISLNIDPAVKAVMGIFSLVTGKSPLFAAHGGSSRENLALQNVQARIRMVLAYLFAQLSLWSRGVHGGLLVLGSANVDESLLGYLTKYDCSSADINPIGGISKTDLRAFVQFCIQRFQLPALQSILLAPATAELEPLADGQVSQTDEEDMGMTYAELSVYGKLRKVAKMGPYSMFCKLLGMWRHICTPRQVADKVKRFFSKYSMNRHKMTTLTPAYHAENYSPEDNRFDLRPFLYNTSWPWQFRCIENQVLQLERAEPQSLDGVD
UniProt Q5QJ74: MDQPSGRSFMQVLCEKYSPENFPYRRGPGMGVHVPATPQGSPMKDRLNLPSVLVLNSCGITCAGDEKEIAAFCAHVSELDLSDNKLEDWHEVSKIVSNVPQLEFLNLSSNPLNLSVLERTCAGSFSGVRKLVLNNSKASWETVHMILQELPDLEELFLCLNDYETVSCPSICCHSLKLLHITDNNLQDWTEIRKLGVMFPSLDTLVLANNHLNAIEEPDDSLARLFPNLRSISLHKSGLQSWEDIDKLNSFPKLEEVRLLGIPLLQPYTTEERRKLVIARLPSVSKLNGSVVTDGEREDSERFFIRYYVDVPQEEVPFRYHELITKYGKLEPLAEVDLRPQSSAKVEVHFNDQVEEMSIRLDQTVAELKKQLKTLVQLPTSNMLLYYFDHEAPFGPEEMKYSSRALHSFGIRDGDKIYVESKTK
UniProt Q6YN16: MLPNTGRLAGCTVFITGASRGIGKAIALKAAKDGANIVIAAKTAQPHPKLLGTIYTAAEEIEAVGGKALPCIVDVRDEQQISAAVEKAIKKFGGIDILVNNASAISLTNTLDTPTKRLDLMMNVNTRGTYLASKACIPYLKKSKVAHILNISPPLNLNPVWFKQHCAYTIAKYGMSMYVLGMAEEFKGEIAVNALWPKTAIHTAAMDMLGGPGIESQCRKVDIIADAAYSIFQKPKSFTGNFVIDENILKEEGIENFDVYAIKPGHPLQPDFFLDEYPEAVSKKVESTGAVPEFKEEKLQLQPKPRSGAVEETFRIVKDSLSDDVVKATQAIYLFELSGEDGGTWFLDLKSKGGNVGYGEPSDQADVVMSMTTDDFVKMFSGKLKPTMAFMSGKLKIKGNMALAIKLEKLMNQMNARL

Compound: COC(=O)/C=C/c1ccccc1 [methyl cinnamate]
Assay: log2 ratio of iodoacetamide-alkyne labeling of the cysteine site, DMSO over compound (competition); higher = stronger covalent engagement of the cysteine by the compound, active = 1 or more
Settings: 500 µM; treatment time 1 h; system: HEK293T cell lysate
Procedure, shortened: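 After 1 h at ambient temperature with vehicle or electrophile (500 µM), HEK293T lysate (2 mg/mL) was labelled for 1 h with iodoacetamide alkyne and clicked to sCIP-TMT reagents. Pooled samples were trypsin-digested overnight at 37 °C, streptavidin-enriched, acid-eluted and analysed by Orbitrap Eclipse LC-MS/MS with FAIMS, then quantified in FragPipe over three replicates with duplicate channels. A cysteine's log2 competition ratio is its mean control-channel over mean compound-channel reporter intensity. Cysteines quantified in only one replicate were not included.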

log2 ratio of iodoacetamide-alkyne labeling, inactive:
RIF1 C1865 (UniProt Q5UIP0) -0.0677
ZC3H14 C261 (UniProt Q6PJT7) 0.074
ZNF318 C349 (UniProt Q5VUA4) -0.149
UniProt Q69YQ0_C79 0.469
CIAPIN1 C237 (UniProt Q6FI81) 0.374
DENND4C C955 (UniProt Q5VZ89) 0.272
WDR73 C259 (UniProt Q6P4I2) -0.0727
ATPAF1 C121 (UniProt Q5TC12) 0.478
RPRD2 C88 (UniProt Q5VT52) -0.00463
UniProt Q5H9R7_C500 -0.179
CEP350 C179 (UniProt Q5VT06) 0.252
TWF2 C141 (UniProt Q6IBS0) 0.222
DARS2 C371 (UniProt Q6PI48) 0.237
SRCAP C2246 (UniProt Q6ZRS2) 0.4
DENND4C C115 (UniProt Q5VZ89) -0.0198
NIPBL C419 (UniProt Q6KC79) 0.488
TJAP1 C172 (UniProt Q5JTD0) 0.188
UniProt Q6PJG6_C720 -0.0205
RRP12 C31 (UniProt Q5JTH9) 0.182
CEP135 C316 (UniProt Q66GS9) -0.167
SLC25A24 C330 (UniProt Q6NUK1) 0.221
RICTOR C1012 (UniProt Q6R327) 0.76
UniProt Q6IQ49_C415 0.426
DOCK11 C592 (UniProt Q5JSL3) -0.228
UniProt Q69YN4_C353 -0.0532
FAM91A1 C141 (UniProt Q658Y4) 0.17
ZNF318 C2168 (UniProt Q5VUA4) 0.287
ATAD2 C635 (UniProt Q6PL18) 0.227
THADA C283 (UniProt Q6YHU6) 0.419
ARMC6 C484 (UniProt Q6NXE6) 0.0961
NADSYN1 C309 (UniProt Q6IA69) -0.0871
BEND3 C95 (UniProt Q5T5X7) 0.27
TBCEL C121 (UniProt Q5QJ74) -0.108
ARID2 C1549 (UniProt Q68CP9) 0.265
HSDL2 C71 (UniProt Q6YN16) 0.286
RNF20 C905 (UniProt Q5VTR2) 0.345
UBAP2 C104 (UniProt Q5T6F2) 0.169

Random excerpt: 2 entries already listed.
log2 ratio of iodoacetamide-alkyne labeling, inactive:
UniProt Q69YQ0_C79 0.469
ZC3H14 C261 (UniProt Q6PJT7) 0.074
